In patent US20020119473:
Results from cells or extracts need not show a direct contact. Negatives hold for the conditions tested.

Chains of the proteins cited; added tags and fusions are not shown. Lines headed by an entry give the natural chain unless they say otherwise; changes in a name come on top.
UniProt Q04609: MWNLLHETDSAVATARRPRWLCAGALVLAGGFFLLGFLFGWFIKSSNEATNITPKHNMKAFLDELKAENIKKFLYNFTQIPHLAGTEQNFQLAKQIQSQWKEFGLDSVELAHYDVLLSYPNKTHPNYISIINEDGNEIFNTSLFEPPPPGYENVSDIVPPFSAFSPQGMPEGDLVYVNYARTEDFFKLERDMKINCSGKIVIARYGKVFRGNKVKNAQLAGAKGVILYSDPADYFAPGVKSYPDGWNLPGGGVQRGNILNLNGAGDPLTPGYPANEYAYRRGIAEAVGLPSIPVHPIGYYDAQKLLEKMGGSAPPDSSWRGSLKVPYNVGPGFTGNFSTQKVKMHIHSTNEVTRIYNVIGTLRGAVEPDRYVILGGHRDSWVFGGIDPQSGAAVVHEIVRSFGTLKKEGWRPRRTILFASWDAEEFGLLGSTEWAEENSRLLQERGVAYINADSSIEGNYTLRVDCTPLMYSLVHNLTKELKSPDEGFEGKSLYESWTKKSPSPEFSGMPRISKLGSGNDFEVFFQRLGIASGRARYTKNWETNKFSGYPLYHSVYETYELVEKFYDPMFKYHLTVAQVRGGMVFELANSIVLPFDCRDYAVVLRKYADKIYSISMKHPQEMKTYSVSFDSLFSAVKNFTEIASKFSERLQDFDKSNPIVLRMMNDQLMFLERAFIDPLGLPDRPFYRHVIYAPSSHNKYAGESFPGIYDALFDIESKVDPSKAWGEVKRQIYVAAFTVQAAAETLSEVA

Target: native PSMA on LNCaP cells (Homo sapiens) (UniProt Q04609)
Experiment: binding assay
Settings: 2'-F pyrimidines, 5'-hexylamine, 3' deoxy-T cap, PBS without Mg/Ca, room temp, protein on the cell surface, label: Rhodamine-Red-X

Sequence | binding result (scrambled control, 50 nM, variant of A10-3 rhodamine) | binding result (fluorescence microscopy, 50 nM aptamer, PC-3 (PSMA-negative) cells as specificity control, variant of xPSM1.A10-3)
CAGGCAUGCCUAGCUAAGCAGCCCAUGGCUUAUGCGCGGAAUAUUGGCUUCCGUUC [A10-3-scrambled (A10-3-rndm)] | no binding | –
GGGAGGACGAUGCGGAUCAGCCAUGUUUACGUCACUCCUUGUCAAUCCUCAUCGGC [A10-3 rhodamine] | – | binds
